Numbering of substitutions follows the chain as printed. The list shows a part of the results. For part of these data: At the low end of the ranking the order means little. For part of these data: The source does not settle which construct or isoform was used. Bounds are passed on as bounds.

Details in all cases: yeast three-hybrid, YBZ-1, SC-Leu-His + 0.5 mM 3-AT, 4 days
Assay [1] addresses T1, PUM1 PUF domain R1-QFR R2-VFQ R7-NPG S863Q + R864F + Q867R + N899V + Y900F + S1079N + N1080P + E1083G (UniProt Q14671).
T1 sequence: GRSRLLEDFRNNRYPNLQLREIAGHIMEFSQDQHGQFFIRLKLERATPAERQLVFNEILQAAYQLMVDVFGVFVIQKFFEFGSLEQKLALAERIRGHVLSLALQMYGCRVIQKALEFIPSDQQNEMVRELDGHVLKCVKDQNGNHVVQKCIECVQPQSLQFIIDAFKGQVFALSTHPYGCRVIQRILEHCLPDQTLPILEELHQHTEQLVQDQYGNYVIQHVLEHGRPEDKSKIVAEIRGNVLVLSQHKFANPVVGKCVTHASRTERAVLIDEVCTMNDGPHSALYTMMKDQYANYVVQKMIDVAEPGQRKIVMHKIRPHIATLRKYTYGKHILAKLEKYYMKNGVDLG

Assay [2] concerns the target T2, PUM1 PUF domain R2-VFQ R3-THE R4-TFR N899V + Y900F + C935T + R936H + Q939E + N971T + H972F + Q975R (UniProt Q14671).
T2 sequence: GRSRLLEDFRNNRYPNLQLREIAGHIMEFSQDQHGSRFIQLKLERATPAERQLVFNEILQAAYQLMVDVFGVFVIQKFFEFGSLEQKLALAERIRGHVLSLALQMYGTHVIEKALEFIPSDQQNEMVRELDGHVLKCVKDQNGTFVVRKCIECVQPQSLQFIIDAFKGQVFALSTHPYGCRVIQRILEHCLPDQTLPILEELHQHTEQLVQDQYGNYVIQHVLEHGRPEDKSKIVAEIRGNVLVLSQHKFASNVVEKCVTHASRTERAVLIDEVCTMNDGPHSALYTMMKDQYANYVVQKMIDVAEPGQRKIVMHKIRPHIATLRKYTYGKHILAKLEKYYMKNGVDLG

Assay [3] deals with T3, PUM1 PUF domain R5-PHQ R6-SWD C1007P + R1008H + N1043S + Y1044W + Q1047D (UniProt Q14671).
T3 sequence: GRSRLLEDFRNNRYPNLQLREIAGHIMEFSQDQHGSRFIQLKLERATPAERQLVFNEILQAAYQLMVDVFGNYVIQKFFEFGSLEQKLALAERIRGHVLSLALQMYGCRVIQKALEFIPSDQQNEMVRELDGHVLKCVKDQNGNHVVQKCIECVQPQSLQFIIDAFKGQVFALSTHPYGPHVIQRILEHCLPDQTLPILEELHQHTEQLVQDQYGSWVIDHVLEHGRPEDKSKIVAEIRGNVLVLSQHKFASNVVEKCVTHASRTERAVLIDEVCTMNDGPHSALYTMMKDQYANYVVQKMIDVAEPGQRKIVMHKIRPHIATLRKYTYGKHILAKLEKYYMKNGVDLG

In assay [4] the target is T4, PUM1 PUF domain R7-ASR S1079A + N1080S + E1083R (Homo sapiens) (UniProt Q14671).
T4 sequence: T1 sequence with Q36S, F37R, R40Q, V72N, F73Y, N252A, P253S, G256R

For assay [5], the target named is T5, PUM1 PUF domain R7-ATR S1079A + N1080T + E1083R (UniProt Q14671).
T5 sequence: T1 sequence with Q36S, F37R, R40Q, V72N, F73Y, N252A, P253T, G256R

The target in assay [6] is T6, PUM1 PUF domain R7-AVR S1079A + N1080V + E1083R (Homo sapiens) (UniProt Q14671).
T6 sequence: T1 sequence with Q36S, F37R, R40Q, V72N, F73Y, N252A, P253V, G256R

For assay [7], the target named is T7, PUM1 PUF domain R7-CSR S1079C + N1080S + E1083R (Homo sapiens) (UniProt Q14671).
T7 sequence: T1 sequence with Q36S, F37R, R40Q, V72N, F73Y, N252C, P253S, G256R

Assay [8] has as its target T8, PUM1 PUF domain R7-CTR S1079C + N1080T + E1083R (Homo sapiens) (UniProt Q14671).
T8 sequence: T1 sequence with Q36S, F37R, R40Q, V72N, F73Y, N252C, P253T, G256R

For assay [9], the target named is T9, PUM1 PUF domain R7-DHV S1079D + N1080H + E1083V (Homo sapiens) (UniProt Q14671).
T9 sequence: T1 sequence with Q36S, F37R, R40Q, V72N, F73Y, N252D, P253H, G256V

Assay [10] concerns the target T10, PUM1 PUF domain R7-DNV S1079D + E1083V (UniProt Q14671).
T10 sequence: T3 sequence with P180C, H181R, S216N, W217Y, D220Q, S252D, E256V

In assay [11] the target is T11, PUM1 PUF domain R7-DYV S1079D + N1080Y + E1083V (UniProt Q14671).
T11 sequence: T1 sequence with Q36S, F37R, R40Q, V72N, F73Y, N252D, P253Y, G256V

Assay [12] addresses T12, PUM1 PUF domain R7-EPG S1079E + N1080P + E1083G (Homo sapiens) (UniProt Q14671).
T12 sequence: T1 sequence with Q36S, F37R, R40Q, V72N, F73Y, N252E

The target of assay [13] is T13, PUM1 PUF domain R7-GCD S1079G + N1080C + E1083D (UniProt Q14671).
T13 sequence: T1 sequence with Q36S, F37R, R40Q, V72N, F73Y, N252G, P253C, G256D

Assay [14] has as its target T14, PUM1 PUF domain R7-GCG S1079G + N1080C + E1083G (Homo sapiens) (UniProt Q14671).
T14 sequence: T1 sequence with Q36S, F37R, R40Q, V72N, F73Y, N252G, P253C

Assay [15] has as its target T15, PUM1 PUF domain R7-GCL S1079G + N1080C + E1083L (Homo sapiens) (UniProt Q14671).
T15 sequence: T1 sequence with Q36S, F37R, R40Q, V72N, F73Y, N252G, P253C, G256L

Assay [16] deals with T16, PUM1 PUF domain R7-GGK S1079G + N1080G + E1083K (Homo sapiens) (UniProt Q14671).
T16 sequence: T1 sequence with Q36S, F37R, R40Q, V72N, F73Y, N252G, P253G, G256K

Assay [17] concerns the target T17, PUM1 PUF domain R7-GGN S1079G + N1080G + E1083N (UniProt Q14671).
T17 sequence: T1 sequence with Q36S, F37R, R40Q, V72N, F73Y, N252G, P253G, G256N

The target of assay [18] is T18, PUM1 PUF domain R7-GGR S1079G + N1080G + E1083R (Homo sapiens) (UniProt Q14671).
T18 sequence: T1 sequence with Q36S, F37R, R40Q, V72N, F73Y, N252G, P253G, G256R

The target in assay [19] is T19, PUM1 PUF domain R7-GIR S1079G + N1080I + E1083R (Homo sapiens) (UniProt Q14671).
T19 sequence: T1 sequence with Q36S, F37R, R40Q, V72N, F73Y, N252G, P253I, G256R

Assay [20] has as its target T20, PUM1 PUF domain R7-GIV S1079G + N1080I + E1083V (UniProt Q14671).
T20 sequence: T1 sequence with Q36S, F37R, R40Q, V72N, F73Y, N252G, P253I, G256V

Assay [21] deals with T21, PUM1 PUF domain R7-GQR S1079G + N1080Q + E1083R (Homo sapiens) (UniProt Q14671).
T21 sequence: T1 sequence with Q36S, F37R, R40Q, V72N, F73Y, N252G, P253Q, G256R

In assay [22] the target is T22, PUM1 PUF domain R7-GRL S1079G + N1080R + E1083L (Homo sapiens) (UniProt Q14671).
T22 sequence: T1 sequence with Q36S, F37R, R40Q, V72N, F73Y, N252G, P253R, G256L

For assay [23], the target named is T23, PUM1 PUF domain R7-GRV S1079G + N1080R + E1083V (Homo sapiens) (UniProt Q14671).
T23 sequence: T1 sequence with Q36S, F37R, R40Q, V72N, F73Y, N252G, P253R, G256V

The target of assay [24] is T24, PUM1 PUF domain R7-GSK S1079G + N1080S + E1083K (Homo sapiens) (UniProt Q14671).
T24 sequence: T1 sequence with Q36S, F37R, R40Q, V72N, F73Y, N252G, P253S, G256K

Turning to “GGCUAGAACUAGUGGAUCCCCCGGCGCCCGGCGGCUCGAGCCCGGGUAAGUCUAAAUAGUCUGCAUGCCGCCGGGCGCCAUGCCUGCAGGUCGACUCUAGAAAACAUG”, the binding signal (log2 enrichment (interaction score)) in assay [1] was less than -5.93; in [2], -5.59; in assay [3], less than -7; in assay [4] it was -5.06; in assay [5], less than -8.73; in assay [6], -3.29. The binding signal (log2 enrichment (interaction score)) in assay [7] is -4.91; in assay [8], -6.35; in [9], -4.6; in assay [10], less than -8.33; in assay [11] it was -6.65; in [12] it was -5.84. Also, the binding signal (log2 enrichment (interaction score)) in [13] is less than -9.24; in assay [14] it was -6.06; in [15], -4.56; in [16] it was -3.65; in assay [17], less than -8.23; in assay [18], -3. Moreover, the binding signal (log2 enrichment (interaction score)) in [19] is -2.6; in assay [20] it was less than -9.02; in assay [21], -2.83; in [22] it was -3.79; in assay [23], -2.73; in assay [24], -0.57.

The values are drawn from PMC8384837.
